According to PubChem BioAssay AID198 (DTP/NCI, 2004):
The list shows only some results of the screen, not a fair sample: it covers a few groups of compounds. Not every dose and run of a compound is shown. T/C: endpoint of the treated group in % of that of the vehicle group. For survival time, the PubChem record calls one and a half times the control and up active, and a quarter to a half above the control has no call in these data; cut-offs in other NCI protocols can differ. Some T/C values are marked as having no survivor count here; that says nothing about deaths at the dose. Schedule codes are those of the source, read here as Q, the interval in days (D) or hours (H), X, the number of doses. Some doses were run more than once; their values stand side by side, smallest first.

Tested on: B16 melanoma ip, C57BL/6 mice, median survival T/C
Experiment: NCI In Vivo Anticancer Drug Screen. Data for tumor model B16 Melanoma (intraperitoneal) in C57BL/6 mice
Conditions: T/C endpoint: median survival time, schedule: Q01DX009 (ip), vehicle: saline, higher T/C = longer survival
Method: The antitumor activity of compounds was measured in mice bearing transplantable tumors. Survival or tumor size were measured and the results are expressed as the measurement made in the treated group (T) divided by the measurement made in the vehicle treated control group (C). The tumor model used in this assay is B16 Melanoma (intraperitoneal) in C57BL/6 mice

CN(CCCl)CCCl
T/C (dose: 0.13 mg/kg/injection): 136 % of control [survivor count not shown]
T/C (dose: 0.25 mg/kg/injection): 156 [survivor count not shown] and 168 % of control [survivor count not shown]
T/C (dose: 0.5 mg/kg/injection): 173 [survivor count not shown] and 200 % of control [survivor count not shown]
T/C (dose: 1.0 mg/kg/injection): 126 % of control [survivor count not shown]
